PubChem BioAssay AID1508588 – Peter MacCallum Cancer Centre, 2020
Here is an unselected part of about 18,000 deposited reagents. In the full data, 790 (4.4%) got an active call. 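Calls rest on a combination of fold-change classes in drug and vehicle arms, not all shown here.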 A reagent listed more than once was tested more than once; the source does not tell the runs apart. No sequences are given here.

Assay: 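Genome-wide search for knock-downs that heighten vemurafenib action in melanoma cells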 (primary screen)
Cell system: human WM266.4 melanoma cells (BRAF V600 mutant)
Reagent: siRNA pool against human genes, 40 nM
Time to read-out: 96 h from transfection to read-out
Treatment: vemurafenib 300 nM (about IC25), added 48 h after transfection, for 48 h; comparison arm got DMSO vehicle only
Detection: 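Cell gain (DAPI nuclei at end minus before drug, mean of two replicates) and medium lactate by absorbance per cell, both as ratio to non-targeting siRNA, also grouped into fold-change classes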
Reading the numbers: cell gain with vemurafenib: higher = more cell gain than with non-targeting siRNA; lactate per cell with vemurafenib: higher = more lactate made per cell
Hit rule: 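a knock-down counts as enhancing when its fold-change classes with vehicle and with vemurafenib, taken together, show a stronger drug effect on cell gain or lactate per cell; exact class pairs not stated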
Calls: active = enhances vemurafenib effect; inactive = no enhancement seen

target | cell gain with vemurafenib | lactate per cell with vemurafenib | Call
GNL2 (GeneID 29889) | 0.46 | 1.4 | inactive
ISCA1P1 (GeneID 389293) | 0.74 | 1.82 | inactive
WDR38 (GeneID 401551) | 0.5 | 0.8 | inactive
SMCO3 (GeneID 440087) | 1.09 | 0.86 | inactive
PEX39 (GeneID 441150) | 0.92 | 1.24 | inactive
SIRT6 (GeneID 51548) | 0.43 | 0.68 | active
HIVEP3 (GeneID 59269) | 1.29 | 0.78 | inactive
ECD (GeneID 11319) | 1.13 | 0.88 | inactive
DGCR8 (GeneID 54487) | 0.67 | 1.03 | inactive
HAAO (GeneID 23498) | 0.57 | 0.65 | inactive
CCDC38 (GeneID 120935) | 0.15 | 1.96 | inactive
TYSND1 (GeneID 219743) | 0.53 | 1.46 | inactive
CCDC82 (GeneID 79780) | -0.06 | 0.6 | inactive
REEP5 (GeneID 7905) | 0.41 | 1.22 | inactive
ATP8A1 (GeneID 10396) | 0.85 | 0.98 | inactive
DDX5 (GeneID 1655) | 0.17 | 1.08 | inactive
S100A5 (GeneID 6276) | 0.19 | 1.07 | inactive
BTN3A1 (GeneID 11119) | 0.52 | 1.19 | inactive
ZBED4 (GeneID 9889) | 0.59 | 0.42 | inactive
DUSP15 (GeneID 128853) | 0.5 | 1.59 | inactive
UGGT1 (GeneID 56886) | 0.54 | 1.1 | inactive
PLA2G2E (GeneID 30814) | 0.36 | 0.5 | inactive
POGK (GeneID 57645) | 0.72 | 0.84 | inactive
FBXO27 (GeneID 126433) | 0.29 | 1.77 | inactive
PGGT1B (GeneID 5229) | 0.64 | 0.54 | inactive
ATXN2 (GeneID 6311) | 0.95 | 0.84 | inactive
TMEM200C (GeneID 645369) | 1.02 | 1.13 | inactive
DHRSX (GeneID 207063) | 0.32 | 0.8 | inactive
GLRA2 (GeneID 2742) | 0.59 | 0.72 | inactive
TMEM126A (GeneID 84233) | 0.73 | 0.76 | inactive
UCHL1 (GeneID 7345) | 0.58 | 1.12 | inactive
MTHFSD (GeneID 64779) | 0.15 | 2.49 | inactive
MARVELD3 (GeneID 91862) | 0.52 | 0.75 | inactive
KLHL34 (GeneID 257240) | 0.95 | 0.66 | inactive
CYP11A1 (GeneID 1583) | 0.84 | 0.91 | inactive
ENGASE (GeneID 64772) | 0.22 | 0.82 | inactive
CADPS (GeneID 8618) | 0.66 | 0.46 | inactive
PAFAH2 (GeneID 5051) | 0.81 | 1.51 | inactive
FRMD5 (GeneID 84978) | 0.24 | 2.9 | inactive
EMC10 (GeneID 284361) | 0.65 | 1.33 | inactive
CELF5 (GeneID 60680) | -0.01 | 0.72 | inactive
RPP38-DT (GeneID 221060) | 0.07 | 2.24 | inactive
SLC4A9 (GeneID 83697) | 0.87 | 0.82 | inactive
ZNF146 (GeneID 7705) | 0.95 | 0.6 | inactive
NKAIN3 (GeneID 286183) | 0.86 | 1.07 | inactive
CILK1 (GeneID 22858) | 0.92 | 0.34 | inactive
SPAG1 (GeneID 6674) | -0.13 | 1.82 | inactive
BOC (GeneID 91653) | 0.65 | 0.93 | inactive
MAL (GeneID 4118) | 0.9 | 0.74 | inactive
DECR2 (GeneID 26063) | 0.91 | 0.96 | inactive
RNF17 (GeneID 56163) | 0.69 | 1.03 | inactive
OR1E2 (GeneID 8388) | 0.79 | 0.44 | inactive
GAGE12I (GeneID 26748) | 0.91 | 0.48 | inactive
CABCOCO1 (GeneID 219621) | 0.73 | 0.88 | inactive
FECH (GeneID 2235) | 0.04 | 0.99 | inactive
CMC2 (GeneID 56942) | 0.59 | 0.97 | inactive
TOP2B (GeneID 7155) | 0.48 | 1.98 | inactive
OSCP1 (GeneID 127700) | 0.59 | 0.97 | inactive
MMP17 (GeneID 4326) | 0.46 | 1.62 | inactive
LRFN4 (GeneID 78999) | 0.71 | 0.4 | inactive
AHSP (GeneID 51327) | 0.11 | 0.76 | inactive
SCHIP1 (GeneID 29970) | 0.65 | 0.41 | active
DSEL (GeneID 92126) | 0.24 | 1.04 | inactive
ZNF436 (GeneID 80818) | 0.73 | 0.6 | inactive
IL1R2 (GeneID 7850) | 0.53 | 1.61 | inactive
DSTN (GeneID 11034) | 1.06 | 0.66 | inactive
CWC25 (GeneID 54883) | 0.56 | 0.46 | inactive
SGSM2 (GeneID 9905) | 0.92 | 1.46 | inactive
ADAM7 (GeneID 8756) | 0.37 | 0.82 | inactive
TDRD5 (GeneID 163589) | 0.65 | 0.45 | inactive
ZFP3 (GeneID 124961) | 0.9 | 0.99 | inactive
OR52E2 (GeneID 119678) | 0.78 | 0.26 | inactive
E2F8 (GeneID 79733) | 0.97 | 0.84 | inactive
CYP11B2 (GeneID 1585) | 1.44 | 0.53 | inactive
HEATR9 (GeneID 256957) | 0.2 | 1.96 | inactive
GRIK5 (GeneID 2901) | 0.65 | 1.74 | inactive
DCST2 (GeneID 127579) | 0.67 | 0.76 | inactive
NIPSNAP1 (GeneID 8508) | 1.16 | 0.88 | inactive
RSPH4A (GeneID 345895) | 0.37 | 0.96 | inactive
CNOT11 (GeneID 55571) | 1.15 | 1.37 | inactive
MLF1 (GeneID 4291) | 0.53 | 1.04 | inactive
TRIM73 (GeneID 375593) | 0.78 | 0.92 | inactive
TBC1D10C (GeneID 374403) | 0.69 | 1.17 | inactive
FCHSD1 (GeneID 89848) | 0.9 | 0.92 | inactive
TLX3 (GeneID 30012) | 0.52 | 0.96 | inactive
SNAI2 (GeneID 6591) | 1.02 | 0.53 | inactive
ACTN1 (GeneID 87) | 0.59 | 0.64 | inactive
RNF128 (GeneID 79589) | 0.43 | 0.32 | inactive
RNF128 (GeneID 79589) | 0.59 | 1.64 | inactive
OR6C3 (GeneID 254786) | 0.23 | 1.28 | inactive
ASAH1 (GeneID 427) | 0.09 | 2.21 | inactive
KCNK15 (GeneID 60598) | 0.6 | 0.52 | inactive
FRMD1 (GeneID 79981) | 0.37 | 1.86 | inactive
NUDT2 (GeneID 318) | 0.26 | 0.62 | inactive
KCNK5 (GeneID 8645) | 1.02 | 1.34 | inactive
H2BC14 (GeneID 8342) | 0.4 | 0.25 | active
YY1AP1 (GeneID 55249) | 1 | 0.6 | inactive
PRSS2 (GeneID 5645) | 0.94 | 0.74 | inactive
ADGRG1 (GeneID 9289) | 0.72 | 0.92 | inactive
FAM20B (GeneID 9917) | 0.12 | 2.54 | inactive
TRIM46 (GeneID 80128) | 1.06 | 0.76 | inactive
ATP1A2 (GeneID 477) | 1.11 | 0.5 | inactive
RNF145 (GeneID 153830) | 1.09 | 0.88 | inactive
WNK3 (GeneID 65267) | 0.83 | 1.11 | inactive
SYCP2 (GeneID 10388) | 0.75 | 0.75 | inactive
LMNTD2 (GeneID 256329) | 0.67 | 0.99 | inactive
USP40 (GeneID 55230) | 0.19 | 2.29 | inactive
